The record followed here is patent US20140018304A1 (INDUSTRY ACADEMIC COOPERATION FOUNDATION YONSEI UNIVERSITY, published 2014).

Results are given in words; binding and its absence hold for the method and conditions named. For some assays here: In cells and extracts the contact can be indirect. Some results given as binding are weak or reduced against the parent protein; the word gives no strength. Where a sequence is shown, tags or fusion partners need not be part of it.

Test [1] deals with T1, PAUF-Myc/His from pcDNA3.1(+)-PAUF-Myc/His (UniProt Q96DA0).
T1 sequence (looked up): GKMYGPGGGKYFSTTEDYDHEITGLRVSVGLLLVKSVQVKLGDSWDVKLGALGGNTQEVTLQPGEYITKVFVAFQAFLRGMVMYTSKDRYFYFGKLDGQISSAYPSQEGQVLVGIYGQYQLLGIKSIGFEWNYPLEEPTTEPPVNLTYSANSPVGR
Put plainly: co-expression in HeLa cells, precipitation with Ni-NTA resin, western blot.

Test [2] has as its target T1, PAUF-Myc/His from pcDNA3.1(+)-PAUF-Myc/His. Put plainly: in vivo co-immunoprecipitation of GLRX3 constructs with PAUF, western blot.
The target is the same in test [3]. Put plainly: His pull-down: PAUF-His on Ni-NTA resin with CFPAC-1 total proteins, western blot.

B1: GLRX3 (H14) expressed from 3xFLAG-CMV14/H14 (enzyme, Homo sapiens, UniProt O76003 1-335, looked up, not shown: small tags and cut ends)
chain: MAAGAAEAAVAAVEEVGSAGQFEELLRLKAKSLLVVHFWAPWAPQCAQMNEVMAELAKELPQVSFVKLEAEGVPEVSEKYEISSVPTFLFFKNSQKIDRLDGAHAPELTKKVQRHASSGSFLPSANEHLKEDLNLRLKKLTHAAPCMLFMKGTPQEPRCGFSKQMVEILHKHNIQFSSFDIFSDEEVRQGLKAYSSWPTYPQLYVSGELIGGLDIIKELEASEELDTICPKAPKLEERLKVLTNKASVMLFMKGNKQEAKCGFSKQILEILNSTGVEYETFDILEDEEVRQGLKAYSNWPTYPQLYVKGELVGGLDIVKELKENGELLPILRGEN
In the case of B1, the binding result in test [1] and in test [2] was “binds” in each case.

B2: UBL4A protein (Ubiquitin-like 4A) in total proteins of the pancreatic cancer cell line CFPAC-1 (protein, human, UniProt P11441 1-157, looked up)
chain: MQLTVKALQGRECSLQVPEDELVSTLKQLVSEKLNVPVRQQRLLFKGKALADGKRLSDYSIGPNSKLNLVVKPLEKVLLEEGEAQRLADSPPPQVWQLISKVLARHFSAADASRVLEQLQRDYERSLSRLTLDDIERLASRFLHPEVTETMEKGFSK
B2: the binding result in test [3] is recorded as “binds”.

B3: UBL4A (H32) expressed from 3xFLAG-CMV14/H32 (protein, Homo sapiens, UniProt P11441 1-157, looked up, not shown: small tags and cut ends)
chain: MQLTVKALQGRECSLQVPEDELVSTLKQLVSEKLNVPVRQQRLLFKGKALADGKRLSDYSIGPNSKLNLVVKPLEKVLLEEGEAQRLADSPPPQVWQLISKVLARHFSAADASRVLEQLQRDYERSLSRLTLDDIERLASRFLHPEVTETMEKGFSK
For B3, the binding entry in test [1] was “binds”.

B4: GLRX3 protein (Glutaredoxin-3) in total proteins of the pancreatic cancer cell line CFPAC-1 (enzyme, human, UniProt O76003 2-335, looked up)
chain: AAGAAEAAVAAVEEVGSAGQFEELLRLKAKSLLVVHFWAPWAPQCAQMNEVMAELAKELPQVSFVKLEAEGVPEVSEKYEISSVPTFLFFKNSQKIDRLDGAHAPELTKKVQRHASSGSFLPSANEHLKEDLNLRLKKLTHAAPCMLFMKGTPQEPRCGFSKQMVEILHKHNIQFSSFDIFSDEEVRQGLKAYSSWPTYPQLYVSGELIGGLDIIKELEASEELDTICPKAPKLEERLKVLTNKASVMLFMKGNKQEAKCGFSKQILEILNSTGVEYETFDILEDEEVRQGLKAYSNWPTYPQLYVKGELVGGLDIVKELKENGELLPILRGEN
Consider B4, for which, in test [3], the binding result is listed as “binds”.
